The record followed here is the supplement of paper PMC6411743.

Amino acid sequences for entries named in this document (tags omitted). A change or cut given only in a name is not applied to a line headed by its entry.
UniProt Q7L8W6: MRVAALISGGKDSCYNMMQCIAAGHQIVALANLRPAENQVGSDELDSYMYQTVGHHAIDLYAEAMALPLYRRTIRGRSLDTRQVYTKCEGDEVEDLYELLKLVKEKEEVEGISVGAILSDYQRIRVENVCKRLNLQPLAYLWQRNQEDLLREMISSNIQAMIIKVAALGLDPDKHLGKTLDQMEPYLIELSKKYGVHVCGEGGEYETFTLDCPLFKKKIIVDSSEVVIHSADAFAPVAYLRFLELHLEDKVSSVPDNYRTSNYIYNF
UniProt Q7Z5J4: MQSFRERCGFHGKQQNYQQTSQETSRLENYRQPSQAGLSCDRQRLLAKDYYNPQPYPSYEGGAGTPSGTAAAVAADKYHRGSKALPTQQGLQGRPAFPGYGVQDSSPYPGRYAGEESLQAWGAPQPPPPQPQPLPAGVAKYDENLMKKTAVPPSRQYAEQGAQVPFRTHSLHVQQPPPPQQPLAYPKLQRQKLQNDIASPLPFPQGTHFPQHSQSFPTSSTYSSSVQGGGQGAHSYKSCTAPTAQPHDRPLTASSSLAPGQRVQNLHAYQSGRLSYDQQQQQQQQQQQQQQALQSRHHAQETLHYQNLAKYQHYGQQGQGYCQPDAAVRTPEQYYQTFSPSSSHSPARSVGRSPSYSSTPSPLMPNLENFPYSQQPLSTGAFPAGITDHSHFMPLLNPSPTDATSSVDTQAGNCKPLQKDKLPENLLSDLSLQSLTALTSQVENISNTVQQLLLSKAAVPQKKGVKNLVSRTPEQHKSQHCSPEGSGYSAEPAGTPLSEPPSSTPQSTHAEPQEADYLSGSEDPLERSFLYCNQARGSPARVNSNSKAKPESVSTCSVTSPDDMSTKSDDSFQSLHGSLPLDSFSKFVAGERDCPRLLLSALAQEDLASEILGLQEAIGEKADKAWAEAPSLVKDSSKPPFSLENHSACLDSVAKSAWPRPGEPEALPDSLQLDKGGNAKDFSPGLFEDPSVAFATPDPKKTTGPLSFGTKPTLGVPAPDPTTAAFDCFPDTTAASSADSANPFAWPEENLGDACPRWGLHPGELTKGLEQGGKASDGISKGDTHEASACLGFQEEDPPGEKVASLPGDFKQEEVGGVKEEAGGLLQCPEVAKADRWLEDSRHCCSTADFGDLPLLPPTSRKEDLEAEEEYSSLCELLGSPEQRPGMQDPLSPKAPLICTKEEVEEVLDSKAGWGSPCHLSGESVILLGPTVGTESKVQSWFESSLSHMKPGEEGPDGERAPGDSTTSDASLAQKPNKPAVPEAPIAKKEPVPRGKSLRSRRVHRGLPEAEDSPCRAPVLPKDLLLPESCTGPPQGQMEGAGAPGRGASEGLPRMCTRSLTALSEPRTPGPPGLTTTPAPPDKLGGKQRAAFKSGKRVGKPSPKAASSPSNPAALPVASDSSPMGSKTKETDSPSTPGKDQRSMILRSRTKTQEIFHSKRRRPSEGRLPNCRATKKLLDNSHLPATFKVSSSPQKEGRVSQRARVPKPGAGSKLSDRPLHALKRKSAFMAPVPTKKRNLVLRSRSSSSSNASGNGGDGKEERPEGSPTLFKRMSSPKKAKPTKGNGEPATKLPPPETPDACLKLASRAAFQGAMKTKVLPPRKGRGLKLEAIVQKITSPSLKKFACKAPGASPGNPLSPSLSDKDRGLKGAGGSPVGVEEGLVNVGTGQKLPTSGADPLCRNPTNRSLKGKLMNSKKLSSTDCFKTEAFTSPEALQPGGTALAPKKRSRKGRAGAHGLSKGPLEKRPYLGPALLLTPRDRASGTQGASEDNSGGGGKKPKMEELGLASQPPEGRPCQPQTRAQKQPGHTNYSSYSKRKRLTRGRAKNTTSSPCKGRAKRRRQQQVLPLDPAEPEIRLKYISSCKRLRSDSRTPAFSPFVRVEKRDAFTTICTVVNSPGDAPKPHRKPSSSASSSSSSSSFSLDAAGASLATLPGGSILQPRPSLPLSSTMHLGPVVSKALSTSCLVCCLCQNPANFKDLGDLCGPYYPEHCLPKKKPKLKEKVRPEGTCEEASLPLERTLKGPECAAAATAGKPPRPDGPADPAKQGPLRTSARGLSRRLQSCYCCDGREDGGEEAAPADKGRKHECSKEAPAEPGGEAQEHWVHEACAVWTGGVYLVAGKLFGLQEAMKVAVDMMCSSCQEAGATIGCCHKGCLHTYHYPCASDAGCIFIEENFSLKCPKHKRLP
UniProt Q66LE6: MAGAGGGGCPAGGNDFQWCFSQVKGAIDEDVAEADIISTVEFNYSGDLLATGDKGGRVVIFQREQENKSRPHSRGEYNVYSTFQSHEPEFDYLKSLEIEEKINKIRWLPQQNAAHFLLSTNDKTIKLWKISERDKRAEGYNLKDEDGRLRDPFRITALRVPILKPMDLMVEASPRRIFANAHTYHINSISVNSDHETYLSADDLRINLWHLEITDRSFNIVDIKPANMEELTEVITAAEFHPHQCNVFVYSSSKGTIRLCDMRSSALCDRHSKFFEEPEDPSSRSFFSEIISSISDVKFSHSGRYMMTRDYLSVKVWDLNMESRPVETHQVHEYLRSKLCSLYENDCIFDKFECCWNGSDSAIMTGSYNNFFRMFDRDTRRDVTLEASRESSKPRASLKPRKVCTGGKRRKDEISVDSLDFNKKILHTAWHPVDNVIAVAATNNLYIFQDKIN
UniProt Q7L0Y3: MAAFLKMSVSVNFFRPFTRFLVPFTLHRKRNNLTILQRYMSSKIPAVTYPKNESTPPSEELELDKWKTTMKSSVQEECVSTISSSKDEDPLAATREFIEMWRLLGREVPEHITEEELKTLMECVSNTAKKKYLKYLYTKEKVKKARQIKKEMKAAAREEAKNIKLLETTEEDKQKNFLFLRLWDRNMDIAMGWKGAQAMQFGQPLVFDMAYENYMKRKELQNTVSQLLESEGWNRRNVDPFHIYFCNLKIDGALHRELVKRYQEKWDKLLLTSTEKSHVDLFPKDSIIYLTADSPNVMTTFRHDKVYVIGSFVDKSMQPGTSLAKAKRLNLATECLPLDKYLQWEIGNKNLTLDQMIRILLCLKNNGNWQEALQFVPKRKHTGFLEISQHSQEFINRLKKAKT
UniProt Q6ZVK8: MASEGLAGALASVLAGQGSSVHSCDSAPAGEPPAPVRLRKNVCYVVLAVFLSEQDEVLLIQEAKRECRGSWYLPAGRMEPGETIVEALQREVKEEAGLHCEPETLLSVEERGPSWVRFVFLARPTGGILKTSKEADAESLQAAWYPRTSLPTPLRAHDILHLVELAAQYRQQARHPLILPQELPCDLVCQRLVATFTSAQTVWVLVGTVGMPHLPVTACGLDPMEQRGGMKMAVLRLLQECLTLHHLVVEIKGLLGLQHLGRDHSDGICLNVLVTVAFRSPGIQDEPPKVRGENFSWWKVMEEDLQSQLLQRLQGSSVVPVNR
UniProt Q6NW34: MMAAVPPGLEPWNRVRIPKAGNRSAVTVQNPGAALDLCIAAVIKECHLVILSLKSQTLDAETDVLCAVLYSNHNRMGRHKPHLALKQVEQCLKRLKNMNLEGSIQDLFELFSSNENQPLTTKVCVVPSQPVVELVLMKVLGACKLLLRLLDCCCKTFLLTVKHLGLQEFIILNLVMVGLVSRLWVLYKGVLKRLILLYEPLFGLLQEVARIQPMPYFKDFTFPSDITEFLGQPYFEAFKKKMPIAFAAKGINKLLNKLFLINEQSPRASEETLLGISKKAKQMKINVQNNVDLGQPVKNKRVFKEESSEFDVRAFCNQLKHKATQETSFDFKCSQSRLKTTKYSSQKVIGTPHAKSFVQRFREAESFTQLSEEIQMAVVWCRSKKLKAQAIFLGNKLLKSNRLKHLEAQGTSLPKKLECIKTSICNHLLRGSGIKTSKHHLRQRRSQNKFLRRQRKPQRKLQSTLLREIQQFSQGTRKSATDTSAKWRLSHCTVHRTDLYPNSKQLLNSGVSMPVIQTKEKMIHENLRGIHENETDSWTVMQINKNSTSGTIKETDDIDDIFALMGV

Compound in this assay: Nc1ncnc2c1ncn2[C@@H]1O[C@H](COP(=O)(O)OP(=O)(O)NP(=O)(O)O)[C@@H](O)[C@H]1O [adenylyl imidodiphosphate]
The assay can be described thus: NP40-soluble protein abundance relative to vehicle (solubility fold change) (ratio); higher = more soluble protein in presence of AMP-PNP. An outline of the steps: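 In three independent experiments, Jurkat crude lysate made by Dounce homogenisation was treated for 10 min at room temperature and then 3 min at 37 °C with eight concentrations ranging from 0.1 to 10 mM. It was then solubilised with 0.8% NP40 plus benzonase for 60 min at 4 °C and ultracentrifuged. The supernatant was TMT-labelled for LC-MS/MS, and each value is the fold change against the detergent-processed vehicle for the same replicate, using vsn-normalised intensities.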

± gives the standard deviation of the averaged measurements. Only a part is listed here, and it is no random draw. Most entries show no effect beyond the scatter of the controls.

On to UniProt Q7L8W6, for which the NP40-soluble protein abundance turned out to be 1.01 ± 0.039 (concentration: 0.1mM) and 0.98 ± 0.045 (concentration: 0.5mM).
The like results for UniProt Q7Z5J4 and related entries were, in that order, 0.989 ± 0.029 and 0.997 ± 0.014.
In the same order, the values of CTR9 (UniProt Q6PD62) are 1.01 ± 0.027 and 1 ± 0.048.
The like results for PPP2R2D (UniProt Q66LE6) were, in that order, 1.009 ± 0.0063 and 0.963 ± 0.015.
For UniProt Q7L0Y3, the NP40-soluble protein abundance by setting is: (concentration: 0.1mM) 0.997 ± 0.024; (concentration: 0.5mM) 1.01 ± 0.015.
In the same order, the values of NUDT18 (UniProt Q6ZVK8) are 0.984 ± 0.011 and 1.01 ± 0.025.
The like results for UniProt Q6NW34 and related entries were, in that order, 0.978 ± 0.043 and 0.999 ± 0.016.
